# From PubChem BioAssay (Tox21)
# The chains behind the UniProt entries cited, without tags or fusion partners. Where a name states a change or a piece, a line headed by the entry shows the natural chain unless it says otherwise.
# UniProt P14416, whole entry, looked up: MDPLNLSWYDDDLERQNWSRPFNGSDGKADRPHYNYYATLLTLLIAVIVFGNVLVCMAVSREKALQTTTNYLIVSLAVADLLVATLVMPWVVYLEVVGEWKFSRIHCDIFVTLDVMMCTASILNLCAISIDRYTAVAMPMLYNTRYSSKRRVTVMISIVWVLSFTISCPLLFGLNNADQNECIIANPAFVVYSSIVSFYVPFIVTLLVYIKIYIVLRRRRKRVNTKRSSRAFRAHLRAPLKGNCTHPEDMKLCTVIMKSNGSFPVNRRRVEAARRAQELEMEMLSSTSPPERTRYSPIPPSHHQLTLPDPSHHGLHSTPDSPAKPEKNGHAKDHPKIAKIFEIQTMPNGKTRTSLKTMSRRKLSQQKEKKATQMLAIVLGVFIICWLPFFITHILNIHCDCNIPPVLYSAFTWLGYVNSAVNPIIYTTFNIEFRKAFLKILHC
# UniProt P30968: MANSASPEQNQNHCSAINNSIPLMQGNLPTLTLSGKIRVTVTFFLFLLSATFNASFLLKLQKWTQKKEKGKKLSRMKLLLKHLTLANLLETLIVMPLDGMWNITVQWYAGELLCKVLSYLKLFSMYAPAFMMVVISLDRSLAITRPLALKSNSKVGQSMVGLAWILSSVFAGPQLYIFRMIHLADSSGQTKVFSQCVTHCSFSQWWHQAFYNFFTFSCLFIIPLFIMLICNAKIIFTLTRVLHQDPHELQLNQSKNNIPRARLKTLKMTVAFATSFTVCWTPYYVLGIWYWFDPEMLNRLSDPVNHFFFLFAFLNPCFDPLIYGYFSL
# UniProt P28223, whole entry, looked up: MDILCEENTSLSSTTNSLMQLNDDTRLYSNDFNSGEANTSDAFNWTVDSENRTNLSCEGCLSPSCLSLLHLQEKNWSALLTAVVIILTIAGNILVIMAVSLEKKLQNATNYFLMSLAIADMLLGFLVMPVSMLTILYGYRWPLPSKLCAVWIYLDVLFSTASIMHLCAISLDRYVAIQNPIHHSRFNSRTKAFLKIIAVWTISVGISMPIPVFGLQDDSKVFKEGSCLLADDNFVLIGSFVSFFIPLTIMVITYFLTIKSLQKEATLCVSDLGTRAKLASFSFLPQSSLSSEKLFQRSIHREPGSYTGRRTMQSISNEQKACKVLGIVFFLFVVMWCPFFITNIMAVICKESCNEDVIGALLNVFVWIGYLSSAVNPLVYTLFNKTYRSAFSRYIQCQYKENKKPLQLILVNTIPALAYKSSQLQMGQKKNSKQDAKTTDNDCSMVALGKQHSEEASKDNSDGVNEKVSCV
# UniProt Q969F8, whole entry, looked up: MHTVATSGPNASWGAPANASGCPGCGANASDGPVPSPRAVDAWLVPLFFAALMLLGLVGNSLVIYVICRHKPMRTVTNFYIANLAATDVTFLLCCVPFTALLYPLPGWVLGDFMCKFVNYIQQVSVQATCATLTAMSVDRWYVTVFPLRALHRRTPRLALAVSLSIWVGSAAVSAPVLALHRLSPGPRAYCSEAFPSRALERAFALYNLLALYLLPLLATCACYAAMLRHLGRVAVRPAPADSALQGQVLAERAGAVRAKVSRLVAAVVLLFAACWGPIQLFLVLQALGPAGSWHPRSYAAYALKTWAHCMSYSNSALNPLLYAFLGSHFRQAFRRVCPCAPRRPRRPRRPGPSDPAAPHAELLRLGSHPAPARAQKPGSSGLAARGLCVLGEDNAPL
# UniProt P11229: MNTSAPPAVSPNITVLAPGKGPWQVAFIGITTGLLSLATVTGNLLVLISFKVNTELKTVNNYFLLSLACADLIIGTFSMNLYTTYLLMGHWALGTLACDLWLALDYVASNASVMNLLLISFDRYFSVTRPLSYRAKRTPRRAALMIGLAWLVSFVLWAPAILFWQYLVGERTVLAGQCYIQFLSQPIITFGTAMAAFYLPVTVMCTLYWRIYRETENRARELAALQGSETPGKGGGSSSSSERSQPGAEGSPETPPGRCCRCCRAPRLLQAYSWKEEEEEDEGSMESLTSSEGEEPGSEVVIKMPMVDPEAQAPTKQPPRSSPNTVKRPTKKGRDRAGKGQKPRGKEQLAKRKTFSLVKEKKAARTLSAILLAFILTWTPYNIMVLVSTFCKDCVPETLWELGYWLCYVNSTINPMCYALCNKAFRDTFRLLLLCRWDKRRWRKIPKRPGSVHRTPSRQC
# Several values for one entry are separate records, joined by “and”; a condition that tells them apart may be missing. Identical values can stand only once. The shares of active, inactive and inconclusive entries below differ from those in the screen. For some of these results: Potencies of inconclusive entries are doubtful fits and often do not repeat. Some structures have more than one record in an assay (separate samples or runs), and their calls can disagree. Activity calls are given as the source filed them. Unless noted, calls come from the whole dose curve.
# Experiments:
# [1] = Nuclear factor erythroid 2-related factor 2/antioxidant responsive element (Nrf2/ARE) small molecule agonists: luciferase reporter gene qHTS assay in human keratinocytes (AID 1919969); note: nearly all actives have a fitted effect of over 35% in size; note: potency is the fitted concentration of half-maximal effect
# [2] = molecular target: D(2) dopamine receptor (Homo sapiens) (UniProt P14416); assay: Dopamine D2 receptor (DRD2) small molecule agonists, cell-based qHTS assay (AID 1963594); conditions: HEK293-DRD2 cAMP HTRF, agonist mode, 30 min; activation: at 92.4 µM (top of the series) unless noted; note: nearly all actives have a fitted effect of over 35% in size; note: potency is the fitted concentration of half-maximal effect; for activation: % is set by controls: 0 for no effect and ±100 for the full control effect
# Method in brief: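 HEK293 cells stably expressing human DRD2, pre-treated with PDE inhibitor Ro20-1724 (0.1 mM final) and compound 10 min at room temperature, then stimulated with NKH477 (200nM […]) for 30 min. cAMP read by HTRF (665/620 nm).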
# [3] = molecular target: Beta-2 adrenergic receptor (Homo sapiens) (UniProt P07550); assay: Adrenergic beta2 receptor (ADRB2) small molecule agonists, cell-based qHTS assay (AID 1963593); conditions: CHO-ADRB2 cells, cAMP HTRF, 30 min; activation: at 92.4 µM (top of the series) unless noted; note: potency is the fitted concentration of half-maximal effect;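 for activation: CHO cells stably overexpressing human ADRB2; % is set by controls: 0 for no effect and ±100 for the full control effect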
# Method in brief: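 CHO cells stably over-expressing ADRB2 were plated overnight at 37C, then dosed with compounds plus a stimulation mix containing 100uM IBMX and 25uM Ro-20-1724 for 0.5hr at room temperature. cAMP was measured by HTRF competition, 1hr.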
# [4] = molecular target: Gonadotropin-releasing hormone receptor (Homo sapiens) (UniProt P30968); assay: Human gonadotropin-releasing hormone receptor (GnRHR) small molecule agonists, calcium flux assay in GnRHR-HEK293 cells (AID 1920063); conditions: calcium flux fluorescence, agonist mode; activity change: at 57.6 µM (top of the series), stronger effect = higher value unless noted; note: nearly all actives have a fitted effect of over 35% in size; note: potency is the fitted concentration of half-maximal effect
# Method in brief: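 Calcium flux, agonist mode, human GnRHR stably integrated in HEK293; dye 1 h at 37 C before compound; Ex/Em=480/540 kinetic read, 3 min; 15 concentrations, triplicate.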
# [5] = p53 small molecule agonists, cell-based qHTS assay with rat liver microsomes (AID 1963578); conditions: HCT-116 p53RE-bla, beta-lactamase ratio, 16 h; activation: at 66 µM (top of the series) unless noted; note: % is set by controls: 0 for no effect and ±100 for the full control effect
# Method in brief: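 Agonist mode in p53RE-bla reporter cells, with compounds co-incubated 16 h at 37 C alongside 0.5 mg/mL rat liver microsomes and 0.5 mg/mL NADPH (final), followed by a 2 h LiveBLAzer detection step.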
# [6] = molecular target: 5-hydroxytryptamine receptor 2A (Homo sapiens) (UniProt P28223); assay: 5-hydroxytryptamine receptor 2A (HTR2A) small molecule antagonists, cell-based qHTS assay (AID 1963586); note: potency is the fitted concentration of half-maximal effect; nearly all actives have a fitted effect of over 45% in size
# Method in brief: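 CHO cells stably expressing human HTR2A were plated for 18 h at 37 C, then loaded with calcium dye for 1 h. Compounds were preincubated 5 min at room temperature before DOI (4 nM solution) was added. Kinetic fluorescence was read for 3 min.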
# [7] = cAMP Responsive Elements (CRE) small molecule agonists, cell-based qHTS assay (AID 1963590); conditions: CRE-bla HEK293T, beta-lactamase FRET ratio, 3 h; activation: at 92.4 µM (top of the series) unless noted; note: potency is the fitted concentration of half-maximal effect; for activation: % is set by controls: 0 for no effect and ±100 for the full control effect
# Method in brief: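 Quantitative HTS for CRE agonists: HEK 293T CRE-bla cells, overnight plating, 3 h compound incubation at 37 C/5% CO2, then 2 h room-temperature LiveBLAzer B/G FRET substrate loading.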
# [8] = molecular target: D(2) dopamine receptor (Homo sapiens) (UniProt P14416); assay: Dopamine D2 receptor (DRD2) small molecule antagonists, cell-based qHTS assay (AID 1963595; active = well fitted inhibition curve with a large enough effect in the signal ratio in the repeat runs, with a control signal flat; inconclusive = weak or mixed curves, or effect the other way; the % refers to the signal ratio; note: potency is the fitted concentration of half-maximal effect); conditions: HEK293-DRD2 cAMP HTRF antagonist mode; activity change, negative = inhibition: at 92.4 µM (top of the series) unless noted
# Method in brief: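 Stable D2 receptor HEK293 line, 24 h after seeding. Compound preincubated 10 min, then quinpirole (12 nM) with forskolin analogue NKH477 (200 nM), 30 min, room temperature. Detection by time-resolved FRET of cAMP.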
# [9] = p53 small molecule agonists, cell-based qHTS assay with human liver microsomes (AID 1963577); conditions: HCT-116 p53RE-bla with human liver microsomes, ratio, 16 h; activation: at 66 µM (top of the series) unless noted; note: potency is the fitted concentration of half-maximal effect
# Method in brief: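 In this qHTS, p53 response-element beta-lactamase cells receive test compound together with a microsome/NADPH activating system (0.5 mg/mL final each) and are incubated 16 h at 37 C before LiveBLAzer fluorescence detection.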
# [10] = p53 small molecule agonists, cell-based qHTS assay with human liver microsomes: qHTS cell viability counter screen (AID 1963579); note: potency is the fitted concentration of half-maximal effect; nearly all actives have a fitted effect of over 45% in size
# Method in brief: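 Metabolically activated exposure: compounds, human liver microsomes and NADPH (0.5 mg/mL final apiece) were added to p53RE-bla cells seeded 5 h earlier, left 16 h at 37 C, and then assessed for viability by CellTiter-Glo luminescence.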
# [11] = p53 small molecule agonists, cell-based qHTS assay with rat liver microsomes: qHTS cell viability counter screen (AID 1963580); note: potency is the fitted concentration of half-maximal effect; nearly all actives have a fitted effect of over 45% in size
# Method in brief: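 Cytotoxicity counter screen: intracellular ATP measured by CellTiter-Glo luminescence in the same wells as the beta-lactamase reporter read, on HCT-116 p53RE-bla cells exposed 16 h at 37 C to compounds with rat liver microsomes and NADPH, each 0.5 mg/mL final.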
# [12] = p53 small molecule agonists, cell-based qHTS assay: qHTS cell viability counter screen (AID 1963581); note: potency is the fitted concentration of half-maximal effect; nearly all actives have a fitted effect of over 45% in size
# Method in brief: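 Multiplexed with the reporter read, a CellTiter-Glo step (30 min, room temperature) gauges ATP-based viability of HCT-116 p53RE-bla cells after 16 h compound incubation at 37 C.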
# [13] = molecular target: Beta-2 adrenergic receptor (Homo sapiens) (UniProt P07550); assay: Adrenergic beta2 receptor (ADRB2) small molecule antagonists, cell-based qHTS assay (AID 1963592); conditions: CHO-ADRB2 cells, isoproterenol-stimulated cAMP HTRF ratio, 0.5 h; activity change, negative = inhibition: at 92.4 µM (top of the series) unless noted; note: nearly all actives have a fitted effect of over 50% in size; note: potency is the fitted concentration of half-maximal effect
# Method in brief: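 Assay format: CHO-ADRB2 cells, 18-20hr seeding at 37C/5% CO2, then compound plus 1nM isoproterenol agonist mix for 0.5hr RT. Homogeneous time-resolved fluorescence cAMP detection after 1hr, expressed as 665/615 nm ratio.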
# [14] = molecular target: KiSS-1 receptor (Homo sapiens) (UniProt Q969F8); assay: Human kisspeptin (KISS1R) small molecule agonists, calcium flux assay in KISS1R-HEK293 cells (AID 1920064; active = well fitted activation curve with a large enough effect in the repeat runs; inconclusive = weak or mixed curves; note: potency is the fitted concentration of half-maximal effect); conditions: KISS1R-HEK293, calcium flux fluorescence, agonist; activation: at 76.8 µM (top of the series)
# Method in brief: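 Triplicate 15-concentration series were applied to dye-loaded human KISS1R HEK293 cells, and agonist-evoked calcium fluorescence was captured for 3 min.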
# [15] = G protein-coupled receptor (GPCR) small molecule agonists, calcium flux assay: HEK293 wild type cell line counter screen (AID 1920065); note: potency is the fitted concentration of half-maximal effect
# Method in brief: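 Non-specific calcium responders were flagged by adding DMSO-dissolved compounds to dye-loaded cells and reading 480/540 nm fluorescence each second for 3 min; ATP served as positive control.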
# [16] = p53 small molecule agonists, cell-based qHTS assay (AID 1963582; active = well fitted activation curve with a large enough effect in the signal ratio in the repeat runs, not every such curve was filed as active; inconclusive = weak or mixed curves; the % refers to the signal ratio; note: potency is the fitted concentration of half-maximal effect); conditions: HCT-116 p53RE-bla reporter, beta-lactamase FRET ratio, 16 h; activation: at 66 µM (top of the series) unless noted
# Method in brief: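 Beta-lactamase reporter cells (p53RE-bla) treated with compounds for 16 h at 37 C; FRET substrate, 2 h, room temperature; fluorescence intensity.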
# [17] = molecular target: Muscarinic acetylcholine receptor M1 (Homo sapiens) (UniProt P11229); assay: Cholinergic receptor muscarinic 1 (CHRM1) small molecule agonists, cell-based qHTS assay (AID 1963589); conditions: CHRM1-CHO cells, agonist mode, calcium flux fluorescence; activation: at 76.8 µM (top of the series); note: potency is the fitted concentration of half-maximal effect; nearly all actives have a fitted effect of over 35% in size
# Method in brief: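 qHTS, 15-point titration, 3 independent runs: compounds pin-transferred onto dye-loaded CHRM1-CHO cells (human M1), calcium fluorescence followed every second to detect agonism.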
# [18] = cAMP Responsive Elements (CRE) small molecule antagonists, cell-based qHTS assay (AID 1963591; active = well fitted inhibition curve with a large enough effect in the signal ratio in the repeat runs, not every such curve was filed as active; inconclusive = weak or mixed curves, or effect the other way; the % refers to the signal ratio; note: potency is the fitted concentration of half-maximal effect); conditions: CRE-bla HEK293T, beta-lactamase FRET ratio; activity change, negative = inhibition: at 92.4 µM (top of the series) unless noted
# Method in brief: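 Fluorescence intensity from cleaved LiveBLAzer B/G substrate (2 h, room temperature) quantified CRE-bla activity in HEK 293T cells exposed 3 h to compound with 0.25 uM final NKH477.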
# [19] = molecular target: 5-hydroxytryptamine receptor 2A (Homo sapiens) (UniProt P28223); assay: 5-hydroxytryptamine receptor 2A (HTR2A) small molecule agonists, cell-based qHTS assay (AID 1963587); conditions: HTR2A-CHO cells, calcium flux fluorescence, agonist mode; activation: at 76.8 µM (top of the series); note: potency is the fitted concentration of half-maximal effect; nearly all actives have a fitted effect of over 30% in size
# Method in brief: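 CHO cells stably expressing human HTR2A, plated 18 h, loaded with calcium dye 1 h at 37 C. Agonist mode: compounds added and intracellular calcium fluorescence recorded kinetically for 2 min at 1 sec intervals.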
# [20] = molecular target: Muscarinic acetylcholine receptor M1 (Homo sapiens) (UniProt P11229); assay: Cholinergic receptor muscarinic 1 (CHRM1) small molecule antagonists, cell-based qHTS assay (AID 1963588); note: potency is the fitted concentration of half-maximal effect; nearly all actives have a fitted effect of over 40% in size
# Method in brief: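 Compounds were tested at 15 concentrations in three independent runs. Dye-loaded CHRM1-CHO cells were exposed 5 min at room temperature before stimulation by acetylcholine added at 50nM. Intracellular calcium was read kinetically on FDSS for 3 min.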
smiles,measurement,setting,value
CC1COC2(c3ccccc3Cl)c3cc(Cl)ccc3NC(=O)CN12 (configuration not stated),Potency,[1],inactive
same,activation,[2],inconclusive: -20.3% [at 42.5 µM]
CC1(C)CON(Cc2ccccc2Cl)C1=O,Potency,[1],inconclusive: 68.6 µM [activator]
same,activation,[3],inconclusive: 34.3%
C[C@H](N)[C@H](O)c1ccc(O)c(O)c1,Potency,[4],"inconclusive: 4.77 µM [activator, partial curve, poor fit]"
same,Potency,[5],inactive
same,Potency,[6],"inconclusive: 163 nM [inhibitor, single point]"
same,activation,[7],inconclusive: 36.4% [at 42.5 µM]
same,Potency,[3],active: 7.5 µM
same,"activity change, negative = inhibition",[8],inconclusive: -9.81% [at 42.5 µM]
C[CH2][Hg][S]c1ccccc1C(=O)O,Potency,[4],"active: 38.9 µM and inconclusive: 21.3 µM [activator, partial curve, poor fit]"
same,Potency,[9],"inconclusive: 6.3 µM [falling, partial curve]"
same,Potency,[10],active: 10.2 µM and active: 11.2 µM
same,Potency,[11],active: 18.2 µM and active: 9.98 µM
same,Potency,[12],active: 10.2 µM and active: 11.2 µM
same,Potency,[6],"active: 18.8 µM and inconclusive: 16.3 µM [inhibitor, partial curve, poor fit]"
same,Potency,[7],"inconclusive: 30.6 µM [fluorescent, partial curve] and inconclusive: 13.3 µM [fluorescent, partial curve]"
same,Potency,[13],active: 27.3 µM
same,Potency,[3],"inconclusive: 15.4 µM [inhibitor, full curve] and inconclusive: 1.33 µM [inhibitor, full curve, poor fit]"
same,Potency,[2],active: 16.6 µM and inconclusive: 21.1 µM
same,Potency,[8],"inconclusive: 77 µM [inhibitor, single point]"
O=C1c2ccccc2C(=O)N1SC(Cl)(Cl)Cl,Potency,[4],"inconclusive: 38.3 µM [activator, single point]"
same,Potency,[14],"inconclusive: 54.9 µM [activator, single point]"
same,Potency,[15],"inconclusive: 38.9 µM [activator, single point]"
same,activation,[5],inconclusive: 16.1%
same,Potency,[10],"inconclusive: 40.8 µM [rising, partial curve]"
same,Potency,[16],inconclusive: 18 µM [fluorescent] and inconclusive: 11.5 µM [activator]
same,Potency,[6],"inconclusive: 37 µM [inhibitor, partial curve, poor fit] and inconclusive: 1.88 µM [inhibitor, full curve, poor fit]"
same,Potency,[17],"inconclusive: 54.2 µM [rising, single point]"
same,Potency,[18],inconclusive: 24.3 µM [full curve]
same,"activity change, negative = inhibition",[18],inconclusive: -30.3%
same,"activity change, negative = inhibition",[13],inconclusive: 16.3%
same,Potency,[3],active: 21.7 µM
same,activation,[3],inconclusive: 0.213%
same,Potency,[8],"inconclusive: 68.6 µM [inhibitor, single point]"
NC(=O)C(Cl)(Cl)Cl,Potency,[4],inactive
O=S(=O)(c1ccc(Cl)cc1)c1ccc(Cl)cc1,Potency,[4],"inconclusive: 44.2 µM [activator, single point]"
same,Potency,[9],"inconclusive: 52 µM [activator, partial curve, poor fit]"
same,Potency,[11],"inconclusive: 116 nM [rising, partial curve]"
same,Potency,[12],"inconclusive: 10.4 µM [rising, full curve, poor fit]"
same,Potency,[16],inconclusive: 12.6 µM
same,Potency,[19],"inconclusive: 55.6 µM [activator, single point]"
same,Potency,[20],inconclusive: 18.4 µM [inhibitor]
same,Potency,[18],inconclusive: 77.9 µM [inhibitor]
same,Potency,[3],"inconclusive: 0.492 µM [inhibitor, full curve, poor fit]"
same,Potency,[8],"inconclusive: 34.8 µM [cytotoxic, partial curve, poor fit]"
CC(C)(C)NCC(O)c1cc(Cl)c(N)c(Cl)c1 (configuration not stated),Potency,[4],inconclusive: 0.0002 µM [activator]
same,Potency,[9],inactive
same,Potency,[7],"inconclusive: 2.7 nM [activator, full curve, poor fit]"
same,Potency,[8],active: 0.0021 µM
CNC(=O)CSP(=S)(OC)OC,Potency,[1],inactive and inconclusive: 68.5 µM [activator]
same,Potency,[3],inactive
